Results taken from publication PMC9468174.
These are yes or no findings as the source states them, for the method shown. In cells and extracts the contact can be indirect. Some results given as binding are weak or reduced against the parent protein; the word gives no strength.

The chains behind the UniProt entries cited, without tags or fusion partners.
UniProt Q12923: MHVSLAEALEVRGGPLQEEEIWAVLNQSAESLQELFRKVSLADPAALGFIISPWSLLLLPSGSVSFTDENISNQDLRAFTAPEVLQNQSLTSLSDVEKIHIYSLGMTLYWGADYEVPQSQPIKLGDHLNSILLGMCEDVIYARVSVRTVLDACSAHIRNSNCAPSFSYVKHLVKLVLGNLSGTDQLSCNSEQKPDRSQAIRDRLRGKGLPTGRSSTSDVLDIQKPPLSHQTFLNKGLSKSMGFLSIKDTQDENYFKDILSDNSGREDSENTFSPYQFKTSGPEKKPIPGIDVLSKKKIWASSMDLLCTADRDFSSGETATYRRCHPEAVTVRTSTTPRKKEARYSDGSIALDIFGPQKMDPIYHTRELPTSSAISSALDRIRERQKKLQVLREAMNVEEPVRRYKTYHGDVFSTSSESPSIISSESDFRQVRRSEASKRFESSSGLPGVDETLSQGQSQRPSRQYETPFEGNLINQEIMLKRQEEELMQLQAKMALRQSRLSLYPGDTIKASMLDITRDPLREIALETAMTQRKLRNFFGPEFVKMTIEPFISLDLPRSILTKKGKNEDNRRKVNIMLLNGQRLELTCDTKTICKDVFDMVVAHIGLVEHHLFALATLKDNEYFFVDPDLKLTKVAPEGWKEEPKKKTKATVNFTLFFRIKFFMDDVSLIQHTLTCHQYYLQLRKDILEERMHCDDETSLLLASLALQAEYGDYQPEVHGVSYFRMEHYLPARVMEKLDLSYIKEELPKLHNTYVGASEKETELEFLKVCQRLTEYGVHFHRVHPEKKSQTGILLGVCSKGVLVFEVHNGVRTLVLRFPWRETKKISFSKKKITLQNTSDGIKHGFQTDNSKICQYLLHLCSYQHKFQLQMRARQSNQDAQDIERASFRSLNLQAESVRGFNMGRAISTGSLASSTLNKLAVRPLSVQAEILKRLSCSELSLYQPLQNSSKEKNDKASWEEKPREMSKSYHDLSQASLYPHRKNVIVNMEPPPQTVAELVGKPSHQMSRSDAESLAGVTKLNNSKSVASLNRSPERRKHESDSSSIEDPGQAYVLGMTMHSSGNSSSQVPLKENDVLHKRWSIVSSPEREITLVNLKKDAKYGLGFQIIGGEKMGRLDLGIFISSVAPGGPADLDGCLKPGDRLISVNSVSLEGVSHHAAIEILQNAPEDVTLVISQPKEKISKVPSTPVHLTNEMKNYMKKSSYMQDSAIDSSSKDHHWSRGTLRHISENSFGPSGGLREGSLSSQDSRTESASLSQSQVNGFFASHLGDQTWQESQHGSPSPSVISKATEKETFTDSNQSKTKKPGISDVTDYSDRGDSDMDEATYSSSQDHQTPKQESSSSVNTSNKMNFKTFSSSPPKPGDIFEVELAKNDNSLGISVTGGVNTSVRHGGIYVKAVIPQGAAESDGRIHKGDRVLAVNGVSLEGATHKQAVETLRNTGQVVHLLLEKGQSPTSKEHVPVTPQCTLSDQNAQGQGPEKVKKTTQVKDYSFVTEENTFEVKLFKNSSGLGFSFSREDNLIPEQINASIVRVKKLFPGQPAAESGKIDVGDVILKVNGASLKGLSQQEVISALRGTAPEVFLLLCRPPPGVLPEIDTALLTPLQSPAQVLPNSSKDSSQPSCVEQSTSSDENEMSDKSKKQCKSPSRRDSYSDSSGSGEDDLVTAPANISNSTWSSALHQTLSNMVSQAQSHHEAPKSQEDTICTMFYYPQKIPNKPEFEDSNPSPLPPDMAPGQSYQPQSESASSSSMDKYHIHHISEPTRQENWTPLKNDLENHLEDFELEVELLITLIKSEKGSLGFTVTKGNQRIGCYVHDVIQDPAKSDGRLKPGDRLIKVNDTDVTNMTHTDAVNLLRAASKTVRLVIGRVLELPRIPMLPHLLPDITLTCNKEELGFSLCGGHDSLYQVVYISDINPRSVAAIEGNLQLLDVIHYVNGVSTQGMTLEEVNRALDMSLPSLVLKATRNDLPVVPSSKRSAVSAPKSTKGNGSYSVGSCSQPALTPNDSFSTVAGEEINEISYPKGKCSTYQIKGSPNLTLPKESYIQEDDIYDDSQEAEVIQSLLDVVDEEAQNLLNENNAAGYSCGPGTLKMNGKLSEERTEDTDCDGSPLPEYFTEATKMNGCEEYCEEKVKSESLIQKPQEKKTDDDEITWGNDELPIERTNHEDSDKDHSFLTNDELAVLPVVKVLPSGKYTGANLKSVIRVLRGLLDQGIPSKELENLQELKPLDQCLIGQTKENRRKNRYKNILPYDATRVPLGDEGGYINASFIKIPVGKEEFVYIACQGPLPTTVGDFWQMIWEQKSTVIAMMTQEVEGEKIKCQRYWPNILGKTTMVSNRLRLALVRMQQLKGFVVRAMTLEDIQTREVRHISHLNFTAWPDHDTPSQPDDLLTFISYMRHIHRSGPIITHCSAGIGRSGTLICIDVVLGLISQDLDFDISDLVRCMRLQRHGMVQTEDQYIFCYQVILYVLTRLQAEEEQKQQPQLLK
UniProt O00560: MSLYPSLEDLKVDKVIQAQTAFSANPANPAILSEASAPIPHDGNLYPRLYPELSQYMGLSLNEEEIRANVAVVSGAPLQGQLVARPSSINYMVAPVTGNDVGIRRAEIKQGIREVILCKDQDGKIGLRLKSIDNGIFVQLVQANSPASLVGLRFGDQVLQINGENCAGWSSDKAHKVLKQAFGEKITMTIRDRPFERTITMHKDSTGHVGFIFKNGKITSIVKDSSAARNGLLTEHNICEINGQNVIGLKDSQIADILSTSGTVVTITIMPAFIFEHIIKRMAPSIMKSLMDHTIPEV

Target: PTPN13 (human (endogenous in iRPE cells derived from hUCMSCs)) (UniProt Q12923)
Test: co-IP; lysate of iRPE cells overexpressing syntenin1-Flag; antibodies against PTPN13 or FLAG (or normal IgG) on Protein A + G magnetic beads, 4 °C overnight, washed with TBS; Western blotting

In the case of “syntenin1-Flag (from UniProt O00560 1-298)”, the binding is reported as “binds”.
